Source: article PMC3946611, “hCLE/C14orf166 Associates with DDX1-HSPC117-FAM98B in a Novel Transcription-Dependent Shuttling RNA-Transporting Complex” (PLoS ONE, 2014)

Amino acid sequences for entries named in this document (tags omitted).
UniProt P05387: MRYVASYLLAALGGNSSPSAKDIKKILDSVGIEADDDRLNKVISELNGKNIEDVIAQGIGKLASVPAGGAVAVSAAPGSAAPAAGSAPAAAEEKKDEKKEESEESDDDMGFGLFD
UniProt O95235: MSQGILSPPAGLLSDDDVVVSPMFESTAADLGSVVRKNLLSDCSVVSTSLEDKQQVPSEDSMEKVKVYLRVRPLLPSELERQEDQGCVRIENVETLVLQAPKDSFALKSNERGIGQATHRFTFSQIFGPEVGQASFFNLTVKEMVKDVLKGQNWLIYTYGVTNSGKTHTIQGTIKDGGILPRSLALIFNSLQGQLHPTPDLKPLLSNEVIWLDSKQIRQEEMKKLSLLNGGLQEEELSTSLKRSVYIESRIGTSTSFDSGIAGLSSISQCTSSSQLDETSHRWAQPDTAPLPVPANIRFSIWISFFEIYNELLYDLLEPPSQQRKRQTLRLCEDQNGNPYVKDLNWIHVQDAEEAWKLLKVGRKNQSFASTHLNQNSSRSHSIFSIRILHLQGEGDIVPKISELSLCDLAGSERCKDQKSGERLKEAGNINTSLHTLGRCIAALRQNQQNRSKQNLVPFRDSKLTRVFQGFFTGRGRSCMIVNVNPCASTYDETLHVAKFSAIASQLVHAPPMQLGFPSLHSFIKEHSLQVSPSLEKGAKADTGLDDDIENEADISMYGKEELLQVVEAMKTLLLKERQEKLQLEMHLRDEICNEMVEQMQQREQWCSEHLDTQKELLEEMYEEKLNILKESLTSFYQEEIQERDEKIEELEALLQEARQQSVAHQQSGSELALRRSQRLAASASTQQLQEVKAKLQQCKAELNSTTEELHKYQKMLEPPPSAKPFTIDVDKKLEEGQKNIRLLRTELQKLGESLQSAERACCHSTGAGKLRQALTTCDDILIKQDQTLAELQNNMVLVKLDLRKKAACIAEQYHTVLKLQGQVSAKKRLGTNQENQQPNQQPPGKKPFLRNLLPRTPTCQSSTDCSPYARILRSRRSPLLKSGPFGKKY
UniProt P60660: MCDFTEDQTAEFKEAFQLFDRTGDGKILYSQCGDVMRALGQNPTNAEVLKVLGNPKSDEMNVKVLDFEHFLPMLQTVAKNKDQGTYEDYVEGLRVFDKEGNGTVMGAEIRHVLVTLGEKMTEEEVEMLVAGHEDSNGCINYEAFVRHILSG
UniProt P35579: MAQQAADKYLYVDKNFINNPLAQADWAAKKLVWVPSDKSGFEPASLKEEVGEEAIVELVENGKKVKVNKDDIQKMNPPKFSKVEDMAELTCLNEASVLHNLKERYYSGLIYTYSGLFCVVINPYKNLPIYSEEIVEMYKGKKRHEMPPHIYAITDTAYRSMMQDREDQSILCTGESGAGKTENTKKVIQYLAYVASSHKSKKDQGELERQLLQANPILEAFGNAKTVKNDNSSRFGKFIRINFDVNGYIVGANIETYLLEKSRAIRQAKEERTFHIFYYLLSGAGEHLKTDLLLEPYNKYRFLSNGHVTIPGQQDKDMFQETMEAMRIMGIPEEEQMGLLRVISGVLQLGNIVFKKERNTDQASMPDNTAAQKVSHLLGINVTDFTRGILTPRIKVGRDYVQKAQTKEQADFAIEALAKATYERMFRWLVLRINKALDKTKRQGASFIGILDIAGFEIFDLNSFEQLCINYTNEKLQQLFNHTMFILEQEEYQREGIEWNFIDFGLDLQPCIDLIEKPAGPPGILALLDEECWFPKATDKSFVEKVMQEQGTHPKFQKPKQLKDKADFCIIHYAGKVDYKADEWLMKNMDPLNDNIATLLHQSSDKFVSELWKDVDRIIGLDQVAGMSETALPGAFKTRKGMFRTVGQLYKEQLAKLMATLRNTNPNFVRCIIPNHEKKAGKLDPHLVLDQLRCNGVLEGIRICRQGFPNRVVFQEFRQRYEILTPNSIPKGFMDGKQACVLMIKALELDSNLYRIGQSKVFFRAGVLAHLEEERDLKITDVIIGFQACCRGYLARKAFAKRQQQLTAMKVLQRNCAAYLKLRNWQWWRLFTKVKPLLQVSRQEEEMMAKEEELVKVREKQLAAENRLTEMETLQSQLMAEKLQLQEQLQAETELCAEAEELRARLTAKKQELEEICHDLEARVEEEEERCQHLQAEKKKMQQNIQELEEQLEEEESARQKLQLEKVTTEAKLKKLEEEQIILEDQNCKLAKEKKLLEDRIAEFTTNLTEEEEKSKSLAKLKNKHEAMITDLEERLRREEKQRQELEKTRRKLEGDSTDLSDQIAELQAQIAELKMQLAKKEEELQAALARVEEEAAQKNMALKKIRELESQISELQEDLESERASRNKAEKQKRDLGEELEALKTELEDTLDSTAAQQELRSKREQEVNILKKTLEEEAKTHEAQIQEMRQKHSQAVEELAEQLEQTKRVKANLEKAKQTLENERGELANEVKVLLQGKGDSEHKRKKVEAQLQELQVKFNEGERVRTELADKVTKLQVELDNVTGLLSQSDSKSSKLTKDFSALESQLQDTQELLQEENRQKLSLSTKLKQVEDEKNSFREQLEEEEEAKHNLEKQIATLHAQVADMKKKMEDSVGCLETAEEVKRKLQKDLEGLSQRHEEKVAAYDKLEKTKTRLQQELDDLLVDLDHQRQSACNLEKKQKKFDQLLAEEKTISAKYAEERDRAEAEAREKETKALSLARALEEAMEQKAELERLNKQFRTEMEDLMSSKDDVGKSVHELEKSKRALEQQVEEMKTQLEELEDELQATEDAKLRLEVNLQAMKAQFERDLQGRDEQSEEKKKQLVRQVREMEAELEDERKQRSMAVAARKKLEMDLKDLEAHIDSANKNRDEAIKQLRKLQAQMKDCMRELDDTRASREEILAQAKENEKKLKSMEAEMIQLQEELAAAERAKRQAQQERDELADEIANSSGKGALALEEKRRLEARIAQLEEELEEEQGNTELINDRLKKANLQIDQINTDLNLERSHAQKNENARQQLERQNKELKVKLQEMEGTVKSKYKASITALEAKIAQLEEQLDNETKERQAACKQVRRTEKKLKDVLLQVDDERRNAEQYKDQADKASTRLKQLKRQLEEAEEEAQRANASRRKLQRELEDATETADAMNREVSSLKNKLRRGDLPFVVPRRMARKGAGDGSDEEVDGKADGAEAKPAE
UniProt O60934: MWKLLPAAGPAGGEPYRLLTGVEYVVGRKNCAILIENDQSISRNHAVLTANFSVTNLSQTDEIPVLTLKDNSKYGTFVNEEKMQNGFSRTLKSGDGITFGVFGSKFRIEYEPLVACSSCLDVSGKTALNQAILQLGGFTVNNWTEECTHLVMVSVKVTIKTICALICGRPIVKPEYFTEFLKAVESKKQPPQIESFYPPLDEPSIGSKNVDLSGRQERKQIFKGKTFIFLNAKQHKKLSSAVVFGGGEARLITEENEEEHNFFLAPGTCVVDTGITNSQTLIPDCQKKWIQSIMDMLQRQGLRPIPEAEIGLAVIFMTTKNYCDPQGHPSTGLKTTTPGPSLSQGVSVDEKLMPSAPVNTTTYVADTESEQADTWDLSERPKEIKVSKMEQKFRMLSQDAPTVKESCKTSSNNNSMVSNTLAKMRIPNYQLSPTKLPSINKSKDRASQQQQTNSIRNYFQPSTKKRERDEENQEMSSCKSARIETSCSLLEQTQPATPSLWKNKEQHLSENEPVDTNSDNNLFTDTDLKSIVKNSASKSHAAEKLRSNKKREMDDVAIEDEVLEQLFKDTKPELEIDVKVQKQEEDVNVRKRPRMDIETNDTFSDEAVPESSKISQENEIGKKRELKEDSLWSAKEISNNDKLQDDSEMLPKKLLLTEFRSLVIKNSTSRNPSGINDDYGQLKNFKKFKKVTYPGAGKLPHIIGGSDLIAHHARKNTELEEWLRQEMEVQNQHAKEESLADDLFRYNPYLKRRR
UniProt P49790: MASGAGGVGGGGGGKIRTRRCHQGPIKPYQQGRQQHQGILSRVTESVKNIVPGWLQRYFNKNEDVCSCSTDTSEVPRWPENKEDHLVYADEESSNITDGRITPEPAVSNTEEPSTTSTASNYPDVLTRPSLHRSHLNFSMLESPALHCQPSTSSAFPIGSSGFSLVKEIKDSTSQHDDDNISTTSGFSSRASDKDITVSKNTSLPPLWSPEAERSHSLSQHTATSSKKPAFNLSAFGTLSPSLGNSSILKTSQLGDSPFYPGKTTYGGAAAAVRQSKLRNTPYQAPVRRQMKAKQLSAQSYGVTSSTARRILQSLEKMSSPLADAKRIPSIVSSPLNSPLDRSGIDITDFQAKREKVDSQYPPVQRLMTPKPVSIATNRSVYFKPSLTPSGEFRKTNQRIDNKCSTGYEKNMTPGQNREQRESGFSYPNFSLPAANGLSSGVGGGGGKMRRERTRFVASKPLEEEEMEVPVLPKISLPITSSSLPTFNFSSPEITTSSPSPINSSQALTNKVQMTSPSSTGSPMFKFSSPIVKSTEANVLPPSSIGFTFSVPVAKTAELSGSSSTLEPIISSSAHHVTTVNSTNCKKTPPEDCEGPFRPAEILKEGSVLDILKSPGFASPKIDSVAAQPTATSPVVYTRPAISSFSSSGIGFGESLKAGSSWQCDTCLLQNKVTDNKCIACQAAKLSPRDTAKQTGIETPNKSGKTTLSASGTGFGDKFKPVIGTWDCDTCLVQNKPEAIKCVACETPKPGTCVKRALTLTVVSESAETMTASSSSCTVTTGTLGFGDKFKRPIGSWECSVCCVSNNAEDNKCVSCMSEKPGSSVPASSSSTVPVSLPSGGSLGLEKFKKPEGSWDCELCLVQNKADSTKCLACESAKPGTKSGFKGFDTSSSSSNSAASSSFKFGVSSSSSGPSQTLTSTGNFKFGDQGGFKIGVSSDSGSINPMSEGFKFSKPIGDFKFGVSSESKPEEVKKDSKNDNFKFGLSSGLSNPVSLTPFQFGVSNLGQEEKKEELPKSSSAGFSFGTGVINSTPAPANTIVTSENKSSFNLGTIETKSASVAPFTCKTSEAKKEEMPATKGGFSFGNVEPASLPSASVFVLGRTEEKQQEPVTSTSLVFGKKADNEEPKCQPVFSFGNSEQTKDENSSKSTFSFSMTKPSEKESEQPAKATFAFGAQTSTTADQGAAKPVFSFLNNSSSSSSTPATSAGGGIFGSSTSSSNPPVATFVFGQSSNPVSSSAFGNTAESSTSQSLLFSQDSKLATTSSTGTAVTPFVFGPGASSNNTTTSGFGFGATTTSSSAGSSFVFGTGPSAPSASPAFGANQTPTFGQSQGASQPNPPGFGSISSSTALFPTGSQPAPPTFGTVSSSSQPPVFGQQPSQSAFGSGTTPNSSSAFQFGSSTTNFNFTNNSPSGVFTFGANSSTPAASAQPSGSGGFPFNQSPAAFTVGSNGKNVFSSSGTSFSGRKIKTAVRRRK
UniProt P31153: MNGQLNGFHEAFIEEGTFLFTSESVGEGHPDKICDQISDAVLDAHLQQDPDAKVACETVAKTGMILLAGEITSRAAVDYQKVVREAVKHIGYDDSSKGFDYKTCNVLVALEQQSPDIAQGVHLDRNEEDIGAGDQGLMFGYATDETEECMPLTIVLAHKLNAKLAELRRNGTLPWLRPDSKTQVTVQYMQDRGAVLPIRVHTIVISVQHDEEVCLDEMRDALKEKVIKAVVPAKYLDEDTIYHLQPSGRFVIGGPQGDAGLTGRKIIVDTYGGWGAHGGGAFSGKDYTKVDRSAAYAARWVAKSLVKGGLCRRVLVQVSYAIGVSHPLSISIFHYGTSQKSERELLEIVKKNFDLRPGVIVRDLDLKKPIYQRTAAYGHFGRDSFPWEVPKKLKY
UniProt Q7Z739: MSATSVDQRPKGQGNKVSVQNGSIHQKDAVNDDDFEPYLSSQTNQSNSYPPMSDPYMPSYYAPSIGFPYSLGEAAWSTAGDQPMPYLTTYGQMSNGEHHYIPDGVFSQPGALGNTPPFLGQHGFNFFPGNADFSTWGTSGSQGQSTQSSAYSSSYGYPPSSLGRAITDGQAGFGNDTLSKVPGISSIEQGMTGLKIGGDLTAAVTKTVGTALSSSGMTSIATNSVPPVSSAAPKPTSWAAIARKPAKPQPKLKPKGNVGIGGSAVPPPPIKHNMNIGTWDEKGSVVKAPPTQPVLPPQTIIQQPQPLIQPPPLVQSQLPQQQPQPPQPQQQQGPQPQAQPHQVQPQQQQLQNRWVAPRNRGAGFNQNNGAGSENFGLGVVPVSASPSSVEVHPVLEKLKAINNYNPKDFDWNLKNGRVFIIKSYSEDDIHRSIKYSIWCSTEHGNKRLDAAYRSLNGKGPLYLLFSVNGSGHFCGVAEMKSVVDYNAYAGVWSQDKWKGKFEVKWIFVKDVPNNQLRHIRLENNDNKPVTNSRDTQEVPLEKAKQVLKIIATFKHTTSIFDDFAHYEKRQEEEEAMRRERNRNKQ

T1: hCLE-TAP tagged protein, purified as hCLE-CBD (human) (UniProt Q9Y224)
T1 sequence: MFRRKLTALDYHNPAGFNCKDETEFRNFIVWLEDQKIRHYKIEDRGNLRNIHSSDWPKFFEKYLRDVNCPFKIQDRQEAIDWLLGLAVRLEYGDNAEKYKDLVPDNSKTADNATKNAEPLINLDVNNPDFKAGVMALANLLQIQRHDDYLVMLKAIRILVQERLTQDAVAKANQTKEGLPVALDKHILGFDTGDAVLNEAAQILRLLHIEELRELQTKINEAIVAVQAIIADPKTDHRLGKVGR

B1: Serrate RNA effector molecule homolog (protein, UniProt Q9BXP5 1-876)
chain: MGDSDDEYDRRRRDKFRRERSDYDRSRERDERRRGDDWNDREWDRGRERRSRGEYRDYDRNRRERFSPPRHELSPPQKRMRRDWDEHSSDPYHSGYEMPYAGGGGGPTYGPPQPWGHPDVHIMQHHVLPIQARLGSIAEIDLGVPPPVMKTFKEFLLSLDDSVDETEAVKRYNDYKLDFRRQQMQDFFLAHKDEEWFRSKYHPDEVGKRRQEARGALQNRLRVFLSLMETGWFDNLLLDIDKADAIVKMLDAAVIKMEGGTENDLRILEQEEEEEQAGKPGEPSKKEEGRAGAGLGDGERKTNDKDEKKEDGKQAENDSSNDDKTKKSEGDGDKEEKKEDSEKEAKKSSKKRNRKHSGDDSFDEGSVSESESESESGQAEEEKEEAEEALKEKEKPKEEEWEKPKDAAGLECKPRPLHKTCSLFMRNIAPNISRAEIISLCKRYPGFMRVALSEPQPERRFFRRGWVTFDRSVNIKEICWNLQNIRLRECELSPGVNRDLTRRVRNINGITQHKQIVRNDIKLAAKLIHTLDDRTQLWASEPGTPPLPTSLPSQNPILKNITDYLIEEVSAEEEELLGSSGGAPPEEPPKEGNPAEINVERDEKLIKVLDKLLLYLRIVHSLDYYNTCEYPNEDEMPNRCGIIHVRGPMPPNRISHGEVLEWQKTFEEKLTPLLSVRESLSEEEAQKMGRKDPEQEVEKFVTSNTQELGKDKWLCPLSGKKFKGPEFVRKHIFNKHAEKIEEVKKEVAFFNNFLTDAKRPALPEIKPAQPPGPAQILPPGLTPGLPYPHQTPQGLMPYGQPRPPILGYGAGAVRPAVPTGGPPYPHAPYGAGRGNYDAFRGQGGYPGKPRNRMVRGDPRAIVEYRDLDAPDDVDFF
B2: Heterogeneous nuclear ribonucleoprotein R (protein, UniProt O43390 1-633)
chain: MANQVNGNAVQLKEEEEPMDTSSVTHTEHYKTLIEAGLPQKVAERLDEIFQTGLVAYVDLDERAIDALREFNEEGALSVLQQFKESDLSHVQNKSAFLCGVMKTYRQREKQGSKVQESTKGPDEAKIKALLERTGYTLDVTTGQRKYGGPPPDSVYSGVQPGIGTEVFVGKIPRDLYEDELVPLFEKAGPIWDLRLMMDPLSGQNRGYAFITFCGKEAAQEAVKLCDSYEIRPGKHLGVCISVANNRLFVGSIPKNKTKENILEEFSKVTEGLVDVILYHQPDDKKKNRGFCFLEYEDHKSAAQARRRLMSGKVKVWGNVVTVEWADPVEEPDPEVMAKVKVLFVRNLATTVTEEILEKSFSEFGKLERVKKLKDYAFVHFEDRGAAVKAMDEMNGKEIEGEEIEIVLAKPPDKKRKERQAARQASRSTAYEDYYYHPPPRMPPPIRGRGRGGGRGGYGYPPDYYGYEDYYDDYYGYDYHDYRGGYEDPYYGYDDGYAVRGRGGGRGGRGAPPPPRGRGAPPPRGRAGYSQRGAPLGPPRGSRGGRGGPAQQQRGRGSRGSRGNRGGNVGGKRKADGYNQPDSKRRQTNNQQNWGSQPIAQQPLQQGGDYSGNYGYNNDNQEFYQDTYGQQWK
B3: ZW10 interactor (protein, UniProt O95229 1-277)
chain: MEAAETEAEAAALEVLAEVAGILEPVGLQEEAELPAKILVEFVVDSQKKDKLLCSQLQVADFLQNILAQEDTAKGLDPLASEDTSRQKAIAAKEQWKELKATYREHVEAIKIGLTKALTQMEEAQRKRTQLREAFEQLQAKKQMAMEKRRAVQNQWQLQQEKHLQHLAEVSAEVRERKTGTQQELDRVFQKLGNLKQQAEQERDKLQRYQTFLQLLYTLQGKLLFPEAEAEAENLPDDKPQQPTRPQEQSTGDTMGRDPGVSFKAVGLQPAGDVNLP
B4: 5∼-3∼exoribonuclease 2 (protein, UniProt Q9H0D6 1-950)
chain: MGVPAFFRWLSRKYPSIIVNCVEEKPKECNGVKIPVDASKPNPNDVEFDNLYLDMNGIIHPCTHPEDKPAPKNEDEMMVAIFEYIDRLFSIVRPRRLLYMAIDGVAPRAKMNQQRSRRFRASKEGMEAAVEKQRVREEILAKGGFLPPEEIKERFDSNCITPGTEFMDNLAKCLRYYIADRLNNDPGWKNLTVILSDASAPGEGEHKIMDYIRRQRAQPNHDPNTHHCLCGADADLIMLGLATHEPNFTIIREEFKPNKPKPCGLCNQFGHEVKDCEGLPREKKGKHDELADSLPCAEGEFIFLRLNVLREYLERELTMASLPFTFDVERSIDDWVFMCFFVGNDFLPHLPSLEIRENAIDRLVNIYKNVVHKTGGYLTESGYVNLQRVQMIMLAVGEVEDSIFKKRKDDEDSFRRRQKEKRKRMKRDQPAFTPSGILTPHALGSRNSPGSQVASNPRQAAYEMRMQNNSSPSISPNTSFTSDGSPSPLGGIKRKAEDSDSEPEPEDNVRLWEAGWKQRYYKNKFDVDAADEKFRRKVVQSYVEGLCWVLRYYYQGCASWKWYYPFHYAPFASDFEGIADMPSDFEKGTKPFKPLEQLMGVFPAASGNFLPPSWRKLMSDPDSSIIDFYPEDFAIDLNGKKYAWQGVALLPFVDERRLRAALEEVYPDLTPEETRRNSLGGDVLFVGKHHPLHDFILELYQTGSTEPVEVPPELCHGIQGKFSLDEEAILPDQIVCSPVPMLRDLTQNTVVSINFKDPQFAEDYIFKAVMLPGARKPAAVLKPSDWEKSSNGRQWKPQLGFNRDRRPVHLDQAAFRTLGHVMPRGSGTGIYSNAAPPPVTYQGNLYRPLLRGQAQIPKLMSNMRPQDSWRGPPPLFQQQRFDRGVGAEPLLPWNRMLQTQNAAFQPNQYQMLAGPGGYPPRRDDRGGRQGYPREGRKYPLPPPSGRYNWN

The molecules below were run against T1, hCLE-TAP tagged protein, purified as hCLE-CBD (human) (assay: affinity purification with mass spectrometry; TAP purification of hCLE-TAP from nuclear extracts of transfected HEK293T cells (150 mM NaCl, 10 mM Tris-HCl pH 8.0, 0.1% NP-40); LC-MS/MS; TAP alone as control).

Molecule | binding
60S acidic ribosomal protein P2 (from UniProt P05387 1-115) | binds
E3 SUMO-protein ligase PIAS1 (from UniProt O75925 1-651) | binds
Kinesin-like protein KIF2A (from UniProt O00139 1-706) | binds
Kinesin-like protein KIF20A (from UniProt O95235 1-890) | binds
LIM domain-binding protein 1 (from UniProt Q86U70 1-411) | binds
Lamin-B receptor (from UniProt Q14739 1-615) | binds
Liprin-alpha-1 (from UniProt Q13136 1-1202) | binds
Myosin light polypeptide 6 (from UniProt P60660 1-151) | binds
Myosin-9 (from UniProt P35579 1-1960) | binds
Nibrin (from UniProt O60934 1-754) | binds
Nuclear pore complex protein Nup153 (from UniProt P49790 1-1475) | binds
Polyadenylate-binding protein 1 (PABP1) (from UniProt P11940 1-636) | binds
S-adenosylmethionine synthase isoform type-2 (from UniProt P31153 1-395) | binds
Serine/threonine-protein kinase WNK1 (from UniProt Q9H4A3 1-2382) | binds
Signal-induced proliferation-associated 1-like protein 2 (from UniProt Q9P2F8 1-1722) | binds
Splicing factor 3B subunit 2 (from UniProt Q13435 1-895) | binds
Transcription factor 4 (from UniProt P15884 1-667) | binds
Vasodilator-stimulated phosphoprotein (from UniProt P50552 1-380) | binds
YTH domain family protein 3 (from UniProt Q7Z739 1-585) | binds
signal-induced proliferation-associated 1-like protein 1 (from UniProt O43166 1-1804) | binds
B1 | binds
B2 | binds
B3 | binds
B4 | binds

Results are given in words; binding and its absence hold for the method and conditions named. Binding seen in cells or lysates may run through a third protein. These calls come from enrichment with a bait or labelling near it, and not all partners need be listed. Where a sequence is shown, tags or fusion partners need not be part of it.
